Results are given in words; binding and its absence hold for the method and conditions named. In cells and extracts the contact can be indirect. Binding calls can cover weak binding; strength is not graded here.
How the values were obtained:
[1] = biological target: T1, CovR of S. pyogenes strain SF370 (endogenous) (S. pyogenes (endogenous in strain SF370)) (UniProt O87527); test: cross-linking
T1 sequence: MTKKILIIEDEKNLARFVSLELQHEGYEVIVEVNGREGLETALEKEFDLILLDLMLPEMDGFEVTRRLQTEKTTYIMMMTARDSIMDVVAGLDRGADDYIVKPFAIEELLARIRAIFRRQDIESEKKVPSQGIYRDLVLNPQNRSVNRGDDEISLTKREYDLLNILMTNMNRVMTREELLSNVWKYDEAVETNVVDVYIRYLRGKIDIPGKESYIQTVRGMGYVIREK

CovR (S. pyogenes) = biological target: T2, CovR (S. pyogenes) (UniProt O87527); test: pull-down; AP reactions of affinity-tagged baits in human plasma, separated by SDS-PAGE and blotted with anti-fibrinogen or anti-human serum albumin antibody; only the target purified
T2 sequence: T1 sequence

For human fibrinogen (complex), the binding [1] was “binds” and the binding (CovR (S. pyogenes)) was “binds”.

Source: paper PMC6588558
